PubChem BioAssay AID1259308 – NCATS, 2017
Here is one part, drawn at random, of about 59,000 reagents tested. About 1,510 of them (2.6%) were called active. 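Calls use total luciferase alone and ignore viability, so some active siRNAs may act by altering cell number.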 Unmarked entries are inactive. The numbers tell different reagents against one gene apart. Further read-outs or replicates are left out here.

- Screen: 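Knock-downs that increase output of a recombinant reporter protein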 (primary screen)
- System: human HEK293 embryonic kidney cells stably expressing firefly luciferase (HEK-CMV-Luc2-Hygro)
- Knock-down reagent: single siRNA against human genes, 0.8 pmol siRNA per well
- Time to read-out: 72 h
- Measured: 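Reporter luminescence and viable-cell signal on separate replicate plates, given as percent of non-targeting control and median/MAD z-scores, plus per-cell luciferase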
- Reading the numbers: total luciferase, z-score and total luciferase, % of control: higher = more reporter protein produced; luciferase per cell, z-score: higher = more reporter output per viable cell
- Rule for the call: 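Active when the median/MAD z-score for overall luciferase is greater than 3; a gene was taken forward for validation with new siRNAs if at least two of its three siRNAs passed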
- Calls: active = raised luciferase; inactive = no rise

total luciferase, z-score	total luciferase, % of control	luciferase per cell, z-score	target	siRNA no.
1.07	103	0.648	ZNF106	1
0.71	96	0.262	ZNF106	2
0.246	86.8	1.45	ZNF106	3
-1.62	49.7	-1.78	CLP1	1
-1.87	44.8	-2.01	CLP1	2
1.13	104	0.77	CLP1	3
0.161	85.1	-0.2	DOCK4	1
0.357	89	-0.0403	DOCK4	2
0.809	98	-0.0407	DOCK4	3
-0.00372	81.8	0.837	PRMT3	1
-0.0659	80.6	-0.429	PRMT3	2
-0.181	78.3	-0.268	PRMT3	3
-0.166	78.6	-0.257	SPINK5	1
-1.11	59.7	-1.09	SPINK5	2
-0.511	71.7	-0.606	SPINK5	3
2.46	131	4.48	EIF4A3	1
3.95 (active)	160	4.92	EIF4A3	2
1.79	118	4.44	EIF4A3	3

No new results follow: entries from further up.
total luciferase, z-score	total luciferase, % of control	luciferase per cell, z-score	target	siRNA no.
-0.166	78.6	-0.257	SPINK5	1
-1.11	59.7	-1.09	SPINK5	2
-0.511	71.7	-0.606	SPINK5	3
2.46	131	4.48	EIF4A3	1

The list goes on.
total luciferase, z-score	total luciferase, % of control	luciferase per cell, z-score	target	siRNA no.
-0.141	79.1	0.101	ZNF74	1
-0.229	77.3	-0.0258	ZNF74	2
-0.621	69.5	-0.781	ZNF74	3
-1.37	54.5	-1.35	SEPTIN9	1
-0.148	78.9	0.526	SEPTIN9	2
1.32	108	0.579	SEPTIN9	3
0.268	87.2	1.34	EPGN	1
0.863	99.1	0.938	EPGN	2
-1.13	59.4	-1.19	EPGN	3
-0.527	71.4	-0.121	RBMY1F	1
-1.68	48.5	-1.3	RBMY1F	2
3.61 (active)	154	2.43	RBMY1F	3
0.833	98.4	0.426	OR5K1	1
-0.323	75.5	-0.488	OR5K1	2
3.67 (active)	155	2.88	OR5K1	3
2.31	128	1.44	CCKBR	1
0.527	92.4	0.361	CCKBR	2
-0.495	72.1	-0.707	CCKBR	3
-0.899	64	-0.361	UGT1A5	1
0.139	84.7	0.094	UGT1A5	2
-0.744	67.1	-0.834	UGT1A5	3
